Experimental data: PubChem BioAssay AID1259308 (NCATS, 2017)
Screen: 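Candidate targets for better recombinant protein yield in mammalian cells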 (primary screen). System: human HEK293 embryonic kidney cells stably expressing firefly luciferase (HEK-CMV-Luc2-Hygro). Knock-down reagent: single siRNA against human genes, 0.8 pmol siRNA per well. Duration: 72 h. Measurement: 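Luciferase light (ONE-Glo) measured on one replicate plate set and viability (CellTiter-Glo) on the other, scaled to a negative control siRNA, with robust z-scores and luciferase per cell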. Reading the numbers: total luciferase, z-score and total luciferase, % of control: higher = more reporter protein produced. Active means: 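An siRNA counts as active if its total luciferase robust z-score exceeds 3; genes with two or more such siRNAs out of three were retested with fresh siRNAs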. Meaning of the calls: active = raised luciferase; inactive = no rise.
Here is an unselected part of about 59,000 reagents tested. Over the whole deposit, about 1,510 (2.6%) got an active call. 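Calls use total luciferase alone and ignore viability, so some active siRNAs may act by altering cell number.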 Entries without a mark were called inactive. The numbers tell different reagents against one gene apart. Further read-outs or replicates are left out here.

CCND3 #1 | total luciferase, z-score = -1.22; total luciferase, % of control = 57.5
CCND3 #2 | total luciferase, z-score = 0.416; total luciferase, % of control = 90.2
CCND3 #3 | total luciferase, z-score = 0.265; total luciferase, % of control = 87.2
CHCHD2 #1 | total luciferase, z-score = 0.406; total luciferase, % of control = 90
CHCHD2 #2 | total luciferase, z-score = 0.793; total luciferase, % of control = 97.7
CHCHD2 #3 | total luciferase, z-score = -2.86; total luciferase, % of control = 25.1
AARD #1 | total luciferase, z-score = -0.815; total luciferase, % of control = 65.7
AARD #2 | total luciferase, z-score = 0.205; total luciferase, % of control = 86
AARD #3 | total luciferase, z-score = -2.04; total luciferase, % of control = 41.4
H2AB2 #1 | total luciferase, z-score = 1.56; total luciferase, % of control = 113
H2AB2 #2 | total luciferase, z-score = 0.0183; total luciferase, % of control = 82.3
H2AB2 #3 | total luciferase, z-score = -0.118; total luciferase, % of control = 79.5
SULF2 #1 | total luciferase, z-score = -0.321; total luciferase, % of control = 75.5
SULF2 #2 | total luciferase, z-score = -1.73; total luciferase, % of control = 47.6
SULF2 #3 | total luciferase, z-score = -0.0259; total luciferase, % of control = 81.4
RADX #1 | total luciferase, z-score = -0.095; total luciferase, % of control = 80
RADX #2 | total luciferase, z-score = -0.464; total luciferase, % of control = 72.6
RADX #3 | total luciferase, z-score = -0.147; total luciferase, % of control = 79
A3GALT2 #1 | total luciferase, z-score = -0.94; total luciferase, % of control = 63.2
A3GALT2 #2 | total luciferase, z-score = 3.41 (active); total luciferase, % of control = 150
A3GALT2 #3 | total luciferase, z-score = 0.819; total luciferase, % of control = 98.2
ADPRHL1 #1 | total luciferase, z-score = -0.662; total luciferase, % of control = 68.7
ADPRHL1 #2 | total luciferase, z-score = -0.223; total luciferase, % of control = 77.5
ADPRHL1 #3 | total luciferase, z-score = 1.6; total luciferase, % of control = 114
RIC8A #1 | total luciferase, z-score = -0.0691; total luciferase, % of control = 80.5
RIC8A #2 | total luciferase, z-score = -0.655; total luciferase, % of control = 68.9
RIC8A #3 | total luciferase, z-score = 2.22; total luciferase, % of control = 126
ATP7B #1 | total luciferase, z-score = -1.11; total luciferase, % of control = 59.8
ATP7B #2 | total luciferase, z-score = 0.268; total luciferase, % of control = 87.2
ATP7B #3 | total luciferase, z-score = -0.43; total luciferase, % of control = 73.3
RIPK3 #1 | total luciferase, z-score = -0.997; total luciferase, % of control = 62.1
RIPK3 #2 | total luciferase, z-score = 0.54; total luciferase, % of control = 92.6
RIPK3 #3 | total luciferase, z-score = 0.0593; total luciferase, % of control = 83.1

Hits, of those listed so far:
A3GALT2 #2 | total luciferase, z-score = 3.41 (active); total luciferase, % of control = 150
